According to patent US20210147817:
Construct, isoform or probe ends are uncertain for at least one entry.

Target: 36H polymerase (Pyrococcus sp.) (UniProt P61875)
Test: activity assay
Conditions: PCR; no product at 200 uM added dUTP; purified recombinant protein

For “GAAGAGCCAAGGACAGGTAC / CCTCCAAATCAAGCCTCTAC [2 kb human genomic DNA amplicon, primer pair]”, the “activity on this sequence” value was “active”.
